Experimental data taken from patent publication US7588931B2, “High arachidonic acid producing strains of Yarrowia lipolytica” (E. I. du Pont de Nemours and Company, priority 2004, dated 2009).

Test system: Yarrowia lipolytica strain Y2031
Experiment: Lipid composition of strain Y2031 over-expressing M. alpina ELO3
Type: cell-based

B1: ELO3: M. alpina C16/18 fatty acid elongase, SEQ ID NOs:53 and 54 (protein, listed as Mortierella alpina)
chain: MESGPMPAGIPFPEYYDFFMDWKTPLAIAATYTAAVGLFNPKVGKVSRVVAKSANAKPAERTQSGAAMTAFVFVHNLILCVYSGITFYYMFPAMVKNFRTHTLHEAYCDTDQSLWNNALGYWGYLFYLSKFYEVIDTIIIILKGRRSSLLQTYHHAGAMITMWSGINYQATPIWIFVVFNSFIHTIMYCYYAFTSIGFHPPGKKYLTSMQITQFLVGITIAVSYLFVPGCIRTPGAQMAVWINVGYLFPLTYLFVDFAKRTYSKRSAIAAQKKAQ
- less C16 fatty acids relative to control strains: 31%
- more C18 fatty acids (18:0, 18:1, 18:2 and GLA) relative to control strains: 35%
